From patent US20070087001A1 (CENTER FOR MOLECULAR MEDICINE AND IMMUNOLOGY, published 2007)
Results are given in words; binding and its absence hold for the method and conditions named. Some entries that bind do so weakly or less than the wild type. Sequences can lack the tags named with a protein.

The chains behind the UniProt entries cited, without tags or fusion partners. Residues count along the entry.
UniProt P17948, residues 27-756: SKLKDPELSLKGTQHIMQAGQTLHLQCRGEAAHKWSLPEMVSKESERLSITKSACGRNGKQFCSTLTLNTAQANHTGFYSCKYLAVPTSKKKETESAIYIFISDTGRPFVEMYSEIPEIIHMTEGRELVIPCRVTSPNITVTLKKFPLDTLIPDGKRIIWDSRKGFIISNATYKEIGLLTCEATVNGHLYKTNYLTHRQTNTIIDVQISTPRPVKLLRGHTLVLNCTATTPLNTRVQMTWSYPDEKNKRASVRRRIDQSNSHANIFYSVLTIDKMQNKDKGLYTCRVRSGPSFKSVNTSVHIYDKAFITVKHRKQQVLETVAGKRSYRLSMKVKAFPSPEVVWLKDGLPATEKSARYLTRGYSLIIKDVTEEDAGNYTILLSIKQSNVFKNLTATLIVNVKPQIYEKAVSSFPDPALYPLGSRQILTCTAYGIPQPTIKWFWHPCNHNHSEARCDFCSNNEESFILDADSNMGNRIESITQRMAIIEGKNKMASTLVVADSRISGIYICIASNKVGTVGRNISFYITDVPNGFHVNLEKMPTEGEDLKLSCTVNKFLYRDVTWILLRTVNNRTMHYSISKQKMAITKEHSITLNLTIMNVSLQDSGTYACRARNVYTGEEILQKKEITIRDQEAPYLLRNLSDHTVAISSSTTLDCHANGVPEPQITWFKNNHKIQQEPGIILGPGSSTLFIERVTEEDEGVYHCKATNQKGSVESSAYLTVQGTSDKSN

Assays:
[1] = target: T1, Recombinant human Flt-1 fusion protein (human, UniProt P17948 27-756); experiment: summary of the ELISA binding assays
T1 construct: Bought fusion protein coated on plates at 10 µg/ml; also called VEGFR1; VEGF receptor I

[2] = target: T2, Recombinant human placenta growth factor-2 (PlGF-2) (human) (UniProt P49763); experiment: summary of the ELISA binding assays
T2 sequence (looked up): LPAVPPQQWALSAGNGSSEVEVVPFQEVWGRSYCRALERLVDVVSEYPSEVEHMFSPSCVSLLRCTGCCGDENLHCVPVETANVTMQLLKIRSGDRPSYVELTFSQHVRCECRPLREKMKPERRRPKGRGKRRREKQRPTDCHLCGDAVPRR

[3] = target: T1, Recombinant human Flt-1 fusion protein; experiment: ELISA on Flt-1-coated wells, FLAG detection, with and without heparin

binding [1]: binds
binding [2]: binds
binding [3]: binds
Binder: SHRYRLAIQLHASDSSSSCVDYKDDDDK (peptide, not shown: small tags and cut ends) [Peptide BP1 (Binding Peptide 1) synthesized with a linker and a C-terminal FLAG epitope]
